The list shows a part of the results. The calls rarely recur for the same compound in another form.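 In K562 cells expressing nanoluciferase-fused kinases, luminescence was recorded at 4 h intervals between 2 and 18 h, normalized as percent of control with DMSO at 100% and a positive control at 0%. A significant (2 sigma) signal drop marks a time point as decreased. The authors' rule for a hit is not shown and takes in more than the number of time points.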
Columns and labels:
Experiment in all cases: number of time points (of 5) at which kinase-Nluc abundance scored as decreased, DMSO-normalised (count); higher = more persistent destabilization
Conditions in all cases: K562; 2-18 h
CAMK2A = CAMK2A (UniProt Q9UQM7)
CAMK2G = CAMK2G (UniProt Q13555)
CDK10 = CDK10 (UniProt Q15131)
CDK2 = CDK2 (UniProt P24941)
CDK3 = CDK3 (UniProt Q00526)
CDK5 = CDK5 (UniProt Q00535)
CDK6 = CDK6 (UniProt Q00534)
CHEK2 = CHEK2 (UniProt O96017)
CSF1R = CSF1R (UniProt P07333)
CSK = CSK (UniProt P41240)
CSNK1A1 = CSNK1A1 (UniProt P48729)
CSNK1D = CSNK1D (UniProt P48730)
DDR1 = DDR1 (UniProt Q08345)
DYRK1B = DYRK1B (UniProt Q9Y463)
DYRK2 = DYRK2 (UniProt Q92630)
EGFR = EGFR (UniProt P00533)
EGFR_G719S = EGFR_G719S (UniProt P00533)
EGFR_G719S_T790M = EGFR_G719S_T790M (UniProt P00533)
EGFR_L718V = EGFR_L718V (UniProt P00533)
EGFR_L858R = EGFR_L858R (UniProt P00533)

The chains behind the UniProt entries cited, without tags or fusion partners. Where a name states a change or a piece, a line headed by the entry shows the natural chain unless it says otherwise.
UniProt Q9UQM7, whole entry: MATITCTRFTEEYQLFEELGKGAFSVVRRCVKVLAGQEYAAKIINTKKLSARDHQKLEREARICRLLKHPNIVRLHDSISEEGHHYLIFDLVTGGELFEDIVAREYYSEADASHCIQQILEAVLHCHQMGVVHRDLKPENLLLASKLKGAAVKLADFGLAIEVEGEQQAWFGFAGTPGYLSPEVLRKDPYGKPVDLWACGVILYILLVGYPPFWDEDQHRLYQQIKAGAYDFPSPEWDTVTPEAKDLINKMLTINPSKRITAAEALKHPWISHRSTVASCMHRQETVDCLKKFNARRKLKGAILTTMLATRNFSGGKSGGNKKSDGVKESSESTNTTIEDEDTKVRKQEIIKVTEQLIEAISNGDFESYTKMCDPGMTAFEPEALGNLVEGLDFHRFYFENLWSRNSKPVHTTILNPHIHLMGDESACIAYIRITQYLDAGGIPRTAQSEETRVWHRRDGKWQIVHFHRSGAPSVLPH
UniProt Q13555: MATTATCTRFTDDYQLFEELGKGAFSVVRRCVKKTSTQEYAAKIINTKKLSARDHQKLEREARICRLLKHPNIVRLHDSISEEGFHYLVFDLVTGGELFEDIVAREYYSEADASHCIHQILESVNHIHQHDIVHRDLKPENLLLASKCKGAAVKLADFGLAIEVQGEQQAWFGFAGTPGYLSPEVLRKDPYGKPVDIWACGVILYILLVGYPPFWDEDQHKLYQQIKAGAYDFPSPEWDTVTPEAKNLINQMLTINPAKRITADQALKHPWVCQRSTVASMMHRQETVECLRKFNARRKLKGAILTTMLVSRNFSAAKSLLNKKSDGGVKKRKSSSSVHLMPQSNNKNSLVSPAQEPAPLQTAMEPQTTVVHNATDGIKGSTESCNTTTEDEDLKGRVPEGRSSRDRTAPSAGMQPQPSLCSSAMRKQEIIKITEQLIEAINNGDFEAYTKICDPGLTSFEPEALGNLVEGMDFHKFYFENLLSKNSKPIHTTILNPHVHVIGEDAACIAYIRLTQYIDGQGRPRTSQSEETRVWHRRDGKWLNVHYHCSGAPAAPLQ
UniProt Q15131: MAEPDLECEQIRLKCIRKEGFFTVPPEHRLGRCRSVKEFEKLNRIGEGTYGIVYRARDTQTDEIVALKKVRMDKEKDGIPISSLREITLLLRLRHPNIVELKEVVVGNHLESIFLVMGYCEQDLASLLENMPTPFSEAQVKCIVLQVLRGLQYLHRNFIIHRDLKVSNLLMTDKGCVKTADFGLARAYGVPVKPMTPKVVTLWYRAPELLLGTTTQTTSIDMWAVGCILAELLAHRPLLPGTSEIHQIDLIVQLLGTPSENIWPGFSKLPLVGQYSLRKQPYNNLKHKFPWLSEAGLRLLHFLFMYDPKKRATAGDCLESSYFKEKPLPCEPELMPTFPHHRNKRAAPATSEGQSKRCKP
UniProt Q00526: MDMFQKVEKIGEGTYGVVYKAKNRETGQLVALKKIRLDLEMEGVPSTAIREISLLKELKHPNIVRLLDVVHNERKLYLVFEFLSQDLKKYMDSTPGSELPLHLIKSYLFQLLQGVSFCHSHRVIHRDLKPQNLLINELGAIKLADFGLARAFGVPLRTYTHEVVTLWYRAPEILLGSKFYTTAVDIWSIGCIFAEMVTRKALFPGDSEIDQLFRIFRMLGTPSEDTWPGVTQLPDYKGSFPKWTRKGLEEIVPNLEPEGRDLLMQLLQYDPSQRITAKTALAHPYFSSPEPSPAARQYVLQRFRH
UniProt Q00535, whole entry, looked up: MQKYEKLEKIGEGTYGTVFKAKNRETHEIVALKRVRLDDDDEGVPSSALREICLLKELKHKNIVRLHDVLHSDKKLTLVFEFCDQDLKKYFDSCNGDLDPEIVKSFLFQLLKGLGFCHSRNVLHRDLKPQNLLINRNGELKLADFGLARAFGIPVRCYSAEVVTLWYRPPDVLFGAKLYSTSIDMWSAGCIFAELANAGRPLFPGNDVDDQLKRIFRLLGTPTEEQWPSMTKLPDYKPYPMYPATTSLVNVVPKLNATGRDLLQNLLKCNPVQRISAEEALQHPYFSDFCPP
UniProt Q00534, whole entry: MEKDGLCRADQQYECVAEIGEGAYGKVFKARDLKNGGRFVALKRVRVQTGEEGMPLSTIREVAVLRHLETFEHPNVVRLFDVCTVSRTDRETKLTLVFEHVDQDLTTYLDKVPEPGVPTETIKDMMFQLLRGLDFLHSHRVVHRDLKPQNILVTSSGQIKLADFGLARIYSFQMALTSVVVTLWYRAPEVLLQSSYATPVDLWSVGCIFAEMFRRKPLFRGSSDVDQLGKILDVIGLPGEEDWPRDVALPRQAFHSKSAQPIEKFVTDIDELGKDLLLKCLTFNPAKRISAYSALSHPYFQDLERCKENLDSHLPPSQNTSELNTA
UniProt P07333, whole entry: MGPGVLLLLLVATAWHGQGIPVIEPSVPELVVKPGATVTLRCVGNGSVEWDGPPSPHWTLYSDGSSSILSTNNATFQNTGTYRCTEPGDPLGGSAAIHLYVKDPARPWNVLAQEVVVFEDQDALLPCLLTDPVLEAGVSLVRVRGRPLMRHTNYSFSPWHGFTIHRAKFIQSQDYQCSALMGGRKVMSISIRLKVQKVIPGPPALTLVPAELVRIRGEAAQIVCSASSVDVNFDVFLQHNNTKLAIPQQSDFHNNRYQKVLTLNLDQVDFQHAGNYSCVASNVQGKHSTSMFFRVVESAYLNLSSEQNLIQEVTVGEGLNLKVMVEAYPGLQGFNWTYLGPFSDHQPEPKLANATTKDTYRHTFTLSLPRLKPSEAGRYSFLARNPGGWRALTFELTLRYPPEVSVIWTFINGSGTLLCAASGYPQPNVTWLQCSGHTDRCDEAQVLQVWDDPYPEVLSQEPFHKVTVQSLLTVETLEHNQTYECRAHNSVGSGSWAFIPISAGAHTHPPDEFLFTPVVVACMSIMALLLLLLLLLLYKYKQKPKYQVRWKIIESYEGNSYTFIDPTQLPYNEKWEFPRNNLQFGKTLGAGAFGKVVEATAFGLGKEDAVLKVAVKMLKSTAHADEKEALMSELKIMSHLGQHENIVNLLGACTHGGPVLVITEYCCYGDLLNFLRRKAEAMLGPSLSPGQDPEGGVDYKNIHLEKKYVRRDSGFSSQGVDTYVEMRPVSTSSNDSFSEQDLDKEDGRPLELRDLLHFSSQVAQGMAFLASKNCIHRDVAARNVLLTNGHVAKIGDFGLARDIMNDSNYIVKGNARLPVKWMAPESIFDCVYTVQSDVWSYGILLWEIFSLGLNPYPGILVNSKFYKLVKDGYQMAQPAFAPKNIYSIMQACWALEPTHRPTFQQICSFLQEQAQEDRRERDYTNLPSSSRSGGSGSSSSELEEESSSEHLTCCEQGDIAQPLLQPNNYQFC
UniProt P41240: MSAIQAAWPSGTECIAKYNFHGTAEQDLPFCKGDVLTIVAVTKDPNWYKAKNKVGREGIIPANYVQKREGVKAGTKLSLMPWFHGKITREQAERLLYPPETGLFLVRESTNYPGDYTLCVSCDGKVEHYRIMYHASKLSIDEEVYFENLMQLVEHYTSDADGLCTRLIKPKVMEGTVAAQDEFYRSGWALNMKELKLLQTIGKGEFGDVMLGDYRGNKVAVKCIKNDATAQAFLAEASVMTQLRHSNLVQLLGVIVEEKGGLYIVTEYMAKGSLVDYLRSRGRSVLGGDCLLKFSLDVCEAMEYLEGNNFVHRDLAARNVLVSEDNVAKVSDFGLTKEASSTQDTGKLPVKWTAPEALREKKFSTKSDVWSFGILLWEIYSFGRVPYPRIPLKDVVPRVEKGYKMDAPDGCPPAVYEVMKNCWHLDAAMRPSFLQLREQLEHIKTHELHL
UniProt P48729: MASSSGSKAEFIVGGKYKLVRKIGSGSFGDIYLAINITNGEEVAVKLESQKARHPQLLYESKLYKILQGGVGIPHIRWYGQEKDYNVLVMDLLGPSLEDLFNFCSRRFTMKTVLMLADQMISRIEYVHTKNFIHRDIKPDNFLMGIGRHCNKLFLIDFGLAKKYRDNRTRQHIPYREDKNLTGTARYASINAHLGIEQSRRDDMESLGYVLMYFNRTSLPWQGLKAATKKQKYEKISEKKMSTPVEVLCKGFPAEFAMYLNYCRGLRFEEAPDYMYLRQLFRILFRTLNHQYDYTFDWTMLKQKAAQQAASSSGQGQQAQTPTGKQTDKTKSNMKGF
UniProt Q08345: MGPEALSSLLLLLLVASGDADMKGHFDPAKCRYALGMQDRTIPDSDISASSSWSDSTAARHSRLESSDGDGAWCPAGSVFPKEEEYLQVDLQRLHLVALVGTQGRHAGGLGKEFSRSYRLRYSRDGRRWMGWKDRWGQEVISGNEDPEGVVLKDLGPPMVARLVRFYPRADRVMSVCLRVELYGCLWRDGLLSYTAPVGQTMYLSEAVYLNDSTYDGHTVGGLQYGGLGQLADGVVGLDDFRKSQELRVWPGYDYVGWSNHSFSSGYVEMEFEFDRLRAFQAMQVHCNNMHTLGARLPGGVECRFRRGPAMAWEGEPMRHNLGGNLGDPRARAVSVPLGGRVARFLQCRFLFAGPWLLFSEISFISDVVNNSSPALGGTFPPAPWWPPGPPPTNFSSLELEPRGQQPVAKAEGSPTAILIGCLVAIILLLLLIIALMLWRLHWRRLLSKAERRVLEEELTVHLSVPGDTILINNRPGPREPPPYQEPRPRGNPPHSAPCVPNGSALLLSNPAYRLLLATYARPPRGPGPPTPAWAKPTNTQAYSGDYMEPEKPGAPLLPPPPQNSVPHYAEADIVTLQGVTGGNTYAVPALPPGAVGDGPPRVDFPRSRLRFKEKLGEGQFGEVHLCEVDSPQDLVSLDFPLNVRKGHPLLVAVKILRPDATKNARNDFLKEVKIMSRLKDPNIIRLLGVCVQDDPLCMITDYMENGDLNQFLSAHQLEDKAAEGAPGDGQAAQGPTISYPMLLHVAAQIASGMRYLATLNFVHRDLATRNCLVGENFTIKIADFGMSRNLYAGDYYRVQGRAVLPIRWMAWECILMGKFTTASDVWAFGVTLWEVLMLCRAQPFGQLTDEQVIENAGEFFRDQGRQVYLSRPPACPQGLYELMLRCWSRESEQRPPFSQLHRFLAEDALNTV
UniProt Q9Y463, whole entry, looked up: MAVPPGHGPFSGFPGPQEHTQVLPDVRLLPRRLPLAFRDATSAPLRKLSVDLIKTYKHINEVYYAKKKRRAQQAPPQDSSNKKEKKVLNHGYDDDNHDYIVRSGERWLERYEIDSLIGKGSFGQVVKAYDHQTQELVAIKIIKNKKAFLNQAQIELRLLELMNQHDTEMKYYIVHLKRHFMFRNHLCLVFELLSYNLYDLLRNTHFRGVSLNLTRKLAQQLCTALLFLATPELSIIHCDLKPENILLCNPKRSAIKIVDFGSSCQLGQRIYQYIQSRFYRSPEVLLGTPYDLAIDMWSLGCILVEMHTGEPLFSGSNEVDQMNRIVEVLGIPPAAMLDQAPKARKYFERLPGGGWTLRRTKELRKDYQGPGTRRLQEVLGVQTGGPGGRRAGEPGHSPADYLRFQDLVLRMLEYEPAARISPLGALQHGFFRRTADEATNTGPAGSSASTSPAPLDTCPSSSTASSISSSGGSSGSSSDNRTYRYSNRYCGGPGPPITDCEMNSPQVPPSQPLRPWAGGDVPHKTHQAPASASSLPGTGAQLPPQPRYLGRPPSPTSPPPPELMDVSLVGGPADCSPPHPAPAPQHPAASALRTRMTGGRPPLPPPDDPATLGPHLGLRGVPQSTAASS
UniProt Q92630: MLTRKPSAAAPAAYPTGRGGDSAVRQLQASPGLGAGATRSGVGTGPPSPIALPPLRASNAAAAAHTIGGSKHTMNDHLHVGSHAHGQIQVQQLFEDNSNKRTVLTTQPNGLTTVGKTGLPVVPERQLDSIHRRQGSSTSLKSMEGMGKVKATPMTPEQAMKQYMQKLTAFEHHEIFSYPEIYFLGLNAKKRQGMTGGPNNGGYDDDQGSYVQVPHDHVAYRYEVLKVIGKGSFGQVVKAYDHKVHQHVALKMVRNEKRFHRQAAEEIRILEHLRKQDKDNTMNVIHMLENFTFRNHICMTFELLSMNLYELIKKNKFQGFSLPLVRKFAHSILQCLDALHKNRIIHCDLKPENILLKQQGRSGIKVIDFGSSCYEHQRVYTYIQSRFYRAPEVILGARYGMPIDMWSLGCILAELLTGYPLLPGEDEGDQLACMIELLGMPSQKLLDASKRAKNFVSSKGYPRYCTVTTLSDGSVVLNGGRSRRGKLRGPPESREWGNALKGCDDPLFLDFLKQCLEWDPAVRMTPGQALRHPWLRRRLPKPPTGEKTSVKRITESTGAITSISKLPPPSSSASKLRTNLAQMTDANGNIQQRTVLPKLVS

Row | SMILES | number of time points (CAMK2A) | number of time points (CAMK2G) | number of time points (CDK10) | number of time points (CDK2) | number of time points (CDK3) | number of time points (CDK5) | number of time points (CDK6) | number of time points (CHEK2) | number of time points (CSF1R) | number of time points (CSK) | number of time points (CSNK1A1) | number of time points (CSNK1D) | number of time points (DDR1) | number of time points (DYRK1B) | number of time points (DYRK2) | number of time points (EGFR) | number of time points (EGFR_G719S) | number of time points (EGFR_G719S_T790M) | number of time points (EGFR_L718V) | number of time points (EGFR_L858R)
1 | CN(C)c1ncnc2nc[nH]c12 [6-(Dimethylamino)purine] (10 µM) | 0 | 0 | 0 | 0 | 0 | 0 | 0 | 0 | 0 | 0 | 0 | 0 | 0 | 0 | 0 | 0 | 0 | 0 | 0 | 0
2 | Cc1ccc(-c2nn(C(C)(C)CNC(=O)c3ccncc3)c3ncnc(N)c23)cc1 (2.5 µM) | 0 | 0 | 0 | 0 | 0 | 0 | 0 | 0 | 0 | 0 | 0 | 0 | 0 | 0 | 0 | 0 | 0 | 0 | 0 | 0
3 | Nc1n[nH]c2cc(-c3ccc(=O)n(Cc4cccc(Cl)c4)c3)ccc12 (10 µM) | 0 | 0 | 0 | 0 | 0 | 0 | 1 | 0 | 0 | 0 | 0 | 0 | 0 | 0 | 0 | 0 | 0 | 0 | 0 | 0
4 | Cc1ccc(-c2ccc3c(ccc4sc5c(c43)NC[C@@H](C)NC5=O)n2)cn1 (10 µM) | 0 | 0 | 0 | 0 | 0 | 0 | 0 | 0 | 0 | 0 | 0 | 0 | 0 | 0 | 0 | 0 | 0 | 0 | 0 | 0
5 | COc1ccc2c(c1OC)OC1c3ccc(O)cc3OCC21 (stereo not given) [Methylnissolin] (10 µM) | 0 | 0 | 0 | 0 | 0 | 0 | 0 | 0 | 0 | 0 | 0 | 0 | 0 | 0 | 0 | 0 | 0 | 0 | 0 | 0
6 | CN(C)c1nc2c(Br)c(Br)c(Br)c(Br)c2n1CC(=O)O (10 µM) | 0 | 0 | 0 | 1 | 0 | 0 | 0 | 0 | 0 | 0 | 0 | 0 | 0 | 0 | 0 | 0 | 0 | 0 | 0 | 0
7 | CC(C)Oc1ccc(-c2cnc3c(-c4ccnc5ccccc45)cnn3c2)cc1 (10 µM) | 0 | 0 | 0 | 0 | 0 | 0 | 0 | 0 | 0 | 0 | 0 | 0 | 0 | 0 | 0 | 0 | 0 | 0 | 0 | 0
8 | O=Nc1c(-c2c(O)[nH]c3ccccc23)[nH]c2ccccc12 [Indirubin-3'-monoxime] (2.5 µM) | 0 | 0 | 0 | 0 | 0 | 0 | 0 | 0 | 0 | 0 | 0 | 0 | 0 | 0 | 0 | 0 | 0 | 0 | 0 | 0
9 | COc1c(O)cc2oc3cc(O)c(CC=C(C)C)c(O)c3c(=O)c2c1CCC(C)(C)O [Garcinone D] (2.5 µM) | 0 | 0 | 0 | 0 | 0 | 0 | 0 | 0 | 0 | 0 | 0 | 0 | 0 | 0 | 0 | 0 | 0 | 0 | 0 | 0
10 | COc1ccc2c(=O)c(-c3ccccc3)coc2c1 [7-Methoxyisoflavone] (10 µM) | 0 | 0 | 0 | 0 | 0 | 0 | 0 | 0 | 1 | 0 | 0 | 0 | 0 | 0 | 0 | 0 | 0 | 0 | 0 | 0

Some entries already given, limited to number of time points (EGFR_L718V), number of time points (CDK5) and number of time points (CSNK1D).
Row	SMILES	number of time points (EGFR_L718V)	number of time points (CDK5)	number of time points (CSNK1D)
2	Cc1ccc(-c2nn(C(C)(C)CNC(=O)c3ccncc3)c3ncnc(N)c23)cc1 (2.5 µM)	0	0	0
3	Nc1n[nH]c2cc(-c3ccc(=O)n(Cc4cccc(Cl)c4)c3)ccc12 (10 µM)	0	0	0

— the supplement of paper PMC12823440, “Inhibitors supercharge kinase turnover through native proteolytic circuits” (Nature, 2025)
